No constants are given. Whether binding was seen depends on the method and setting. Binding seen in cells or lysates may run through a third protein. Some results given as binding are weak or reduced against the parent protein; the word gives no strength.
Molecular target: Heat shock cognate 71 kDa protein (Hsc70) (mouse (endogenous in primary hepatocytes)) (UniProt P63017)
Assay: co-IP; endogenous proteins of mouse primary hepatocytes; precipitated overnight with Hsc70 antibody (IgG as control) and protein G agarose beads; washed three times with modified RIPA buffer; western blot

Protein sequences, listed by entry. Tags and fused reporters are not part of them.
UniProt P63017: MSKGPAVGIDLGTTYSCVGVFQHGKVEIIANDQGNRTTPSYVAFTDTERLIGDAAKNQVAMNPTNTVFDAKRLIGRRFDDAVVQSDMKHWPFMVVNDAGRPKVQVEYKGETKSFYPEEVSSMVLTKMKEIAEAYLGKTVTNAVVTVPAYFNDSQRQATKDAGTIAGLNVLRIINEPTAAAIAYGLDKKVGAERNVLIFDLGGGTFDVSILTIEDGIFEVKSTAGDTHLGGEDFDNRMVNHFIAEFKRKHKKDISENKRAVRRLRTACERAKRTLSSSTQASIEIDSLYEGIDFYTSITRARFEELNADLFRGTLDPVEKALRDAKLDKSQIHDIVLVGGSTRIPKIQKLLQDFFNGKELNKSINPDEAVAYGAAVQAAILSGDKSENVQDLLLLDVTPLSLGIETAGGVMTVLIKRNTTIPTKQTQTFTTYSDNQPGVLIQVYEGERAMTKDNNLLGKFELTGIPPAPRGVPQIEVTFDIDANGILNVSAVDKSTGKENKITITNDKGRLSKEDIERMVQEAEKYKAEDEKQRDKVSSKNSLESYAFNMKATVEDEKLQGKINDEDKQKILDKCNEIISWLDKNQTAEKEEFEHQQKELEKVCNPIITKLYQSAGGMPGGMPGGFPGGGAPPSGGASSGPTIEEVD
UniProt Q60974: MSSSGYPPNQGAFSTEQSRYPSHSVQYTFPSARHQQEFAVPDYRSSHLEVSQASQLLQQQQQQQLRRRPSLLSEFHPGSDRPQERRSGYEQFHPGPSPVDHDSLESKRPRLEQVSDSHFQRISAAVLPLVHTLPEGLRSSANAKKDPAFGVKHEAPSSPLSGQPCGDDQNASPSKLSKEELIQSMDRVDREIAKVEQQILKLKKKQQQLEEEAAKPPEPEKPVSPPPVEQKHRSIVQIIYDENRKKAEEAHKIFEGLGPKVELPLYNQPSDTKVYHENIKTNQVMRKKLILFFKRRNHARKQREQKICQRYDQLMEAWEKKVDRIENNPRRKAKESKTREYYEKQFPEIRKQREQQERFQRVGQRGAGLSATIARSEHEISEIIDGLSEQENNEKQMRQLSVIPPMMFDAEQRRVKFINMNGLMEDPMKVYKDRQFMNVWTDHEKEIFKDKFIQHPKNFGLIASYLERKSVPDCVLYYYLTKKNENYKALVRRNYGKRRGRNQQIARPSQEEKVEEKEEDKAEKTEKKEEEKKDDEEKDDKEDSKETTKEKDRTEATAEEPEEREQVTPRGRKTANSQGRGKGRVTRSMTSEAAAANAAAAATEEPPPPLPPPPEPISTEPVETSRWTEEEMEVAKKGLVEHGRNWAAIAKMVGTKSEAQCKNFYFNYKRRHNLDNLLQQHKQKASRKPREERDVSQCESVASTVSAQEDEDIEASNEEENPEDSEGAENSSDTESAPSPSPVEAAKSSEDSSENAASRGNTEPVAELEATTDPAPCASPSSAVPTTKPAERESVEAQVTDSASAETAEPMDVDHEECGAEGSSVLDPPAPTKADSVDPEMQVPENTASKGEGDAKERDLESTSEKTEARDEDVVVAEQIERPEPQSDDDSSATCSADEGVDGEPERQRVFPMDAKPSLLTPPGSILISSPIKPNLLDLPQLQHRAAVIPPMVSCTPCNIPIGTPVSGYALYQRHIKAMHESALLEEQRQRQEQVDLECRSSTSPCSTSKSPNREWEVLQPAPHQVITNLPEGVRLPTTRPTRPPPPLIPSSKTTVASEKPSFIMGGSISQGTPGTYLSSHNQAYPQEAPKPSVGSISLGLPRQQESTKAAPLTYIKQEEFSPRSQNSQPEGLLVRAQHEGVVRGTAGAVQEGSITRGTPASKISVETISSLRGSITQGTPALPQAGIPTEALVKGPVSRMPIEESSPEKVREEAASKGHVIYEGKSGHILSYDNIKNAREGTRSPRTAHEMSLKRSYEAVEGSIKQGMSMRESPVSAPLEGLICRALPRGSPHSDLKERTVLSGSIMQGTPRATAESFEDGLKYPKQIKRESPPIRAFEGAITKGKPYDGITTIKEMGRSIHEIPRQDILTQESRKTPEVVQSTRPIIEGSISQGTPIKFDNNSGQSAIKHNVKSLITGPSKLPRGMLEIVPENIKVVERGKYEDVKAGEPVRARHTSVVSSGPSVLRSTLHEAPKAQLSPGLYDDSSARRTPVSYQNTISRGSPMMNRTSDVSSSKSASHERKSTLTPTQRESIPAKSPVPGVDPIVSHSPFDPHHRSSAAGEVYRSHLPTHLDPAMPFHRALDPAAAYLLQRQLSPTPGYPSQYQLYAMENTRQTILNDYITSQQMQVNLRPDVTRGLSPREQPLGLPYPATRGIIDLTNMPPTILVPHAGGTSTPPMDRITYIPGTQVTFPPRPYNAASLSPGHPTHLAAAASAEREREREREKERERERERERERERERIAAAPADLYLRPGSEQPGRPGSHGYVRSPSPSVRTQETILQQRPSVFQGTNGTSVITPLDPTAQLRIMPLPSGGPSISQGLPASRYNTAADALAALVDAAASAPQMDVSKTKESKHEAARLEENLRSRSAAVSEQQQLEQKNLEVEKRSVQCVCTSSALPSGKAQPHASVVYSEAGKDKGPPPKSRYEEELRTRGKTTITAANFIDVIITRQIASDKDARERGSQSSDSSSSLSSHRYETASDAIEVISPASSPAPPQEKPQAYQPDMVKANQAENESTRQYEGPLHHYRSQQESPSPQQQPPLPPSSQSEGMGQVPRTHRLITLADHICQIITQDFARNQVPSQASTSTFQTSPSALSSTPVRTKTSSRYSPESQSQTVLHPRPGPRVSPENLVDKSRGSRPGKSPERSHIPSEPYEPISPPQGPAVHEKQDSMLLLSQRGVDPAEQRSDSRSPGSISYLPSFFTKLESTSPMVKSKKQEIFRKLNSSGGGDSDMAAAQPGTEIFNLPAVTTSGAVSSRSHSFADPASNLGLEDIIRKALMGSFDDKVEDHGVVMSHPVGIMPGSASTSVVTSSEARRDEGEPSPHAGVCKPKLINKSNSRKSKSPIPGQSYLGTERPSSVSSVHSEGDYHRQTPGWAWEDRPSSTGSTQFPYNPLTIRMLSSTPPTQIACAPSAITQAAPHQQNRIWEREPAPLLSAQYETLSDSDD

binding: binds
Substance: nuclear receptor corepressor 1 (NCoR1) (from UniProt Q60974 1-2453)
